The results in this text go back to patent US20220160802A1, “METHODS AND COMPOSITIONS FOR PROMOTING HEALTH IN A SUBJECT” (COMMONWEALTH SCIENTIFIC AND INDUSTRIAL RESEARCH ORGANISATION, priority 2019, published 2022).

Several values for one entry are separate records, joined by “and”; a condition that tells them apart may be missing. Identical values can stand only once.

This data set can be described thus: Untargeted LC-MS metabolite analysis of fermented and non-fermented broccoli puree. The settings on record: fermented vs non-fermented broccoli puree.
Consider `C[S+](CCCN)C[C@H]1O[C@@H](n2cnc3c(N)ncnc32)[C@H](O)[C@@H]1O` (stereo partly drawn) [S-adenosyl 3-methylthiopropylamine], for which the FC was determined as 14.564. The value for `C[S+](CC[C@H](N)C(=O)[O-])C[C@H]1O[C@@H](n2cnc3c(N)ncnc32)[C@H](O)[C@@H]1O` (stereo partly drawn) [S-adenosyl-L-methionine] was 7.3817; that for `COc1ccc(C[C@H]2c3cc(OC)c(OC)cc3CCN2C)cc1O` [S-laudanine] was 2.8697.

For `C[C@@H](C=O)C(=O)O` [S-methylmalonate-semialdehyde], the FC is on record as 2.5477. As to `COc1ccc(C[C@@H]2NCCc3cc(OC)c(O)cc32)cc1O` [S-norreticuline], the FC turned out to be 32.883. The value for `CC[C@H](CC[C@@H](C)[C@H]1CC[C@H]2[C@@H]3CC[C@H]4C[C@@H](OC(=O)/C=C/c5ccc(O)c(OC)c5)CC[C@]4(C)[C@H]3CC[C@]12C)C(C)C` [Stigmastanol ferulate] was 0.2817. As to `Nc1ccc(S(=O)(=O)Nc2ccc(Cl)nn2)cc1` [Sulfachloropyridazine], the FC is on record as 4.1627. Take `COc1cc(NS(=O)(=O)c2ccc(N)cc2)nc(OC)n1` [Sulfadimethoxine]: the FC turned out to be 11.488. With `O=c1ccn([C@@H]2O[C@H](COP(=O)(O)OP(=O)(O)O[C@H]3OC[C@@H](O)[C@H](O)[C@H]3O)[C@@H](O)[C@H]2O)c(=O)[nH]1` [UDP-alpha-D-xylose], the FC was found to be 13.367. On to `N[C@@H](CCC(=O)N[C@@H](CS/C(Cc1ccccc1)=N\O)C(=O)NCC(=O)O)C(=O)O` [Z-1-glutathione-S-yl-2-phenyl-acetohydroximate], for which the FC worked out at 19.906.

As to `Nc1ncnc2nc[nH]c12` [adenine], the FC stood at 2.0623.

For the compound `NC(=O)NC(NC(N)=O)C(=O)O` [allantoate], the FC worked out at 10.972. For `O=C(O)[C@H]1O[C@H](OP(=O)(O)O)[C@H](O)[C@@H](O)[C@H]1O` [alpha-D-galacturonate 1-phosphate], the FC amounted to 11.846.

For the compound `Nc1ccccc1C(=O)[O-].[Na+]` [anthranilate], the FC was determined as 3.0289. On to `O=C1O[C@@H]2[C@@H](O)CO[C@]2(O)C1(O)Cc1c[nH]c2ccccc12` (stereo partly drawn) [ascorbigen], for which the FC came out at 3.7819. For the compound `O=C(O)c1ccccc1` [benzoate], the FC came out at 5.4402. As for `C[N+](C)(C)CC=O` [betaine aldehyde], the FC is given as 3.5234. As to `CCCC=O` [butan-1-al], the FC is 2.0853. `c1ccc2c(-c3nccs3)c[nH]c2c1` [camalexin]: the FC stood at 0.2758. Then `NC(=O)OP(=O)(O)O` [carbamoyl phosphate], with 7.7098; and `CC1=CC(O/C=C(C)\C=C\C2=C(C)CCCC2(C)C)OC1=O` (stereo not drawn) [carlactone], with 0.05293; and `CC(C)CCC[C@@H](C)[C@H]1CC[C@H]2[C@@H]3CC=C4C[C@@H](O)CC[C@]4(C)[C@H]3CC[C@]12C` [cholesterol], with 2.816. The value for `O=C(O)/C=C(/CC(=O)O)C(=O)O` [cis-aconitate] was 0.1833; that for `COc1cc(/C=C/C=O)ccc1O[C@@H]1O[C@H](CO)[C@@H](O)[C@H](O)[C@H]1O` [coniferaldehyde glucoside] was 7.1826. Take `COc1cc(/C=C/C=O)ccc1O` [coniferaldehyde]: the FC was 6.6643. Then `COc1cc(/C=C/CO)ccc1O` [coniferyl alcohol], with 0.3782.

Consider `OC[C@H]1O[C@@H](Oc2cc3c(O)cc(O)cc3[o+]c2-c2ccc(O)c(O)c2)[C@H](O)[C@@H](O)[C@@H]1O` [cyanidin-3-O-beta-D-glucoside], for which the FC is reported as 2.0686. For the compound `C=C(CC[C@@H](C)[C@H]1CC[C@@]2(C)[C@@H]3CC[C@H]4[C@H](C)C(=O)CC[C@@]45C[C@@]35CC[C@]12C)C(C)C` [cycloeucalenone], the FC is reported as 3.4926. As for `Cc1cn([C@H]2C[C@H](O)[C@@H](COP(=O)(O)OP(=O)(O)O)O2)c(=O)[nH]c1=O` [dTDP], the FC is reported as 5.6526.

For `Cc1cn([C@H]2C[C@H](O)[C@@H](COP(=O)(O)O)O2)c(=O)[nH]c1=O` [dTMP], the FC worked out at 6.9501. On to `COc1cc(CCCO)ccc1O[C@@H]1O[C@H](CO)[C@@H](O)[C@H](O)[C@H]1O` [dihydroconiferyl alcohol glucoside], for which the FC is 5.6248. Consider `C=CC1=CC[C@@H]2[C@H](CC[C@@H]3C(C)(C)CCC[C@@]23C)[C@@H]1C` [ent-cassa-12,15-diene], for which the FC was 0.3328. Turning to `C=C(CO)[C@H]1C/C=C(\C)CC/C=C(\C)CC1` [germacra-110,4,1113-trien-12-ol], the FC is given as 0.2351.

As for `O=S(=O)(O)ON=C(Cc1c[nH]c2ccccc12)S[C@@H]1O[C@H](CO)[C@@H](O)[C@H](O)[C@H]1O` [glucobrassicin], the FC turned out to be 26.746. In the case of `CSCCC/C(=N\OS(=O)(=O)O)S[C@@H]1O[C@H](CO)[C@@H](O)[C@H](O)[C@H]1O` [glucoiberverin], the FC stood at 0.08732. Then `O=C(OCCC/C(=N\OS(=O)(=O)O)S[C@@H]1O[C@H](CO)[C@@H](O)[C@H](O)[C@H]1O)c1ccccc1` [glucomalcommin], with 4.1855; and `C[S+]([O-])CCCC/C(=N\OS(=O)(=O)O)S[C@@H]1O[C@H](CO)[C@@H](O)[C@H](O)[C@H]1O` (stereo partly drawn) [glucoraphanin], with 27 and 27.475. `O=S(=O)(O)ON=C(Cc1ccccc1)S[C@@H]1O[C@H](CO)[C@@H](O)[C@H](O)[C@H]1O` [glucotropeolin]: the FC stood at 0.4795. Then `NCC(=O)O` [glycine], with 0.2359; and `O=CC(=O)O` [glyoxylate], with 16.835.

For the compound `O=C(O)Cc1cc(O)ccc1O` [homogentisate], the FC came out at 7.6608. Take `O=C1C=c2cc[nH]c2=CC1=O` [indole-5,6-quinone]: the FC is on record as 2.6937.

`S=C=NCc1c[nH]c2ccccc12` [indolylmethylisothiocyanate]: the FC is 7.7651. Regarding `COc1cc(-c2oc3cc(O)cc(O)c3c(=O)c2O)cc(O)c1O` [laricitrin], the FC is 0.4281. The value for `CCCCCCCCCCCC(=O)O` [laurate] was 0.3396; that for `O=C(O)/C=C/c1cccc(O)c1` [m-Coumaric acid] was 2.187; that for `O=C(O)CC(=O)O` [malonate] was 9.0975. As to `Nc1nc2c(c(=O)[nH]1)N[C@H]1C(S)=C(S)[C@@H](COP(=O)(O)O)O[C@H]1N2` [molybdopterin], the FC was 149.51. With `CCCCCc1cc(O)cc(O)c1` [olivetol], the FC came to 0.1309. As for `O=C(O)c1cc(=O)[nH]c(=O)n1[C@@H]1O[C@H](COP(=O)(O)O)[C@@H](O)[C@H]1O` [orotidine 5′-phosphate], the FC was found to be 14.737. The value for `O=C(/C=C/c1ccc(O)cc1)Cc1cc(O)cc(=O)o1` [p-coumaroyltriacetic acid lactone] was 0.1844; that for `COc1ccc(Cc2nccc3cc(OC)c(OC)cc23)cc1OC` [papaverine] was 0.3665. As to `NCCCN` [propane-1,3-diamine], the FC is reported as 5.5793. Consider `Cc1ncc(COP(=O)(O)O)c(C=O)c1O` [pyridoxal 5′-phosphate], for which the FC amounted to 7.0734.

For `Cc1ncc(CO)c(C=O)c1O` [pyridoxal], the FC is listed as 3.0278. For the compound `O=C(O)C1CSC(=S)N1` (stereo not drawn) [raphanusamate], the FC is on record as 5.5593.

Take `O=C(O)c1ccccc1O` [salicylate]: the FC is reported as 13.59. In the case of `CC1(C)C[C@@H](O)[C@]2(C)CC[C@]3(C)C(=CC[C@@H]4[C@@]5(C)CC[C@H](O)[C@](C)(CO)[C@@H]5CC[C@]43C)[C@@H]2C1` [soyasapogenol B], the FC was found to be 0.3584. With `C/C(=C\CNc1ncnc2nc[nH]c12)CO` [trans-zeatin], the FC came to 0.3921.

Turning to `O=c1[nH]c(=O)c2[nH]c(=O)[nH]c2[nH]1` [urate], the FC worked out at 7.2329. Regarding `C=CC(O)CC(=NOS(=O)(=O)O)S[C@@H]1O[C@H](CO)[C@@H](O)[C@H](O)[C@H]1O` (stereo partly drawn) [xi-progoitrin], the FC is given as 5.091. As to --Epicatechin 3-O-gallate, the FC came to 2.4481.

In the case of E,E-geranyllinalool, the FC turned out to be 0.01825. The value for Hydroxycaffeic acid was 0.4323. As to indole-3-acetyl-glutamate, the FC is 0.1547. In the case of indole-3-acetyl-glutamine, the FC is given as 0.2028. On to indole-3-acetyl-phenylalanine, for which the FC was found to be 17.44. As for monodehydroascorbate radical, the FC was found to be 2.0677.

Take pheophorbide a: the FC was found to be 6.3398.
